Test results published in publication PMC5510181.
These are yes or no findings as the source states them, for the method shown. In cells and extracts the contact can be indirect. Some entries that bind do so weakly or less than the wild type. For some assays here: Sequences can lack the tags named with a protein. Each block holds one substance with its values, some of them ahead of it.

Protein sequences, listed by entry. Tags and fused reporters are not part of them. Lines headed by an entry give the natural chain unless they say otherwise; changes in a name come on top.
UniProt P20701: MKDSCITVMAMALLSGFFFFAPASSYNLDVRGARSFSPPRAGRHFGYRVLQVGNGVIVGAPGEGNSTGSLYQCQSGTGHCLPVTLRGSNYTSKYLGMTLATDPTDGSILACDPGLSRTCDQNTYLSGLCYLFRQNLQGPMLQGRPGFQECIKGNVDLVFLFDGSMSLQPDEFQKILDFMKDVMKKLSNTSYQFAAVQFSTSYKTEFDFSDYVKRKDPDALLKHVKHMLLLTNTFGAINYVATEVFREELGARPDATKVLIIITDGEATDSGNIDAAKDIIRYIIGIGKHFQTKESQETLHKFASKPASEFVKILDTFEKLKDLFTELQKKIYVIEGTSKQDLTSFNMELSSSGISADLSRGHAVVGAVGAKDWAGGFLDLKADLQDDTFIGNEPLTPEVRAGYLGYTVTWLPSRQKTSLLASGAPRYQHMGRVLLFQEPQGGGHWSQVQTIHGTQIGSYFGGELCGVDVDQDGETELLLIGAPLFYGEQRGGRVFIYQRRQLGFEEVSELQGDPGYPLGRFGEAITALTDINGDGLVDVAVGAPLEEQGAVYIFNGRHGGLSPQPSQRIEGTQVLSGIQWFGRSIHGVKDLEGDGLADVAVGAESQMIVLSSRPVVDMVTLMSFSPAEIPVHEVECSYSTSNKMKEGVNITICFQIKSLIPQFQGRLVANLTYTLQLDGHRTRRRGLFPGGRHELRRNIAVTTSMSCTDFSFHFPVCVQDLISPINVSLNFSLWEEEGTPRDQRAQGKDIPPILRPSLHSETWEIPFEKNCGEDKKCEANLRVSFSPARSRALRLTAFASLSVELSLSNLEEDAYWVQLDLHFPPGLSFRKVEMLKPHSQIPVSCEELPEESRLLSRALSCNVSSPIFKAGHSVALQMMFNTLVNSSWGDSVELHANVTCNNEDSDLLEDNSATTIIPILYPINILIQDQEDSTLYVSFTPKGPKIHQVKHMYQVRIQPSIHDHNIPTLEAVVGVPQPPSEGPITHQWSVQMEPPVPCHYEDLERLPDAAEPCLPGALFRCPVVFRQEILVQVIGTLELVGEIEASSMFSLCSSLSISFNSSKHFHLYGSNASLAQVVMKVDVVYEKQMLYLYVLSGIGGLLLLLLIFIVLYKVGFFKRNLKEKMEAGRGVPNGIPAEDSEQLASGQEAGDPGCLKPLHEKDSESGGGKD
UniProt P05107: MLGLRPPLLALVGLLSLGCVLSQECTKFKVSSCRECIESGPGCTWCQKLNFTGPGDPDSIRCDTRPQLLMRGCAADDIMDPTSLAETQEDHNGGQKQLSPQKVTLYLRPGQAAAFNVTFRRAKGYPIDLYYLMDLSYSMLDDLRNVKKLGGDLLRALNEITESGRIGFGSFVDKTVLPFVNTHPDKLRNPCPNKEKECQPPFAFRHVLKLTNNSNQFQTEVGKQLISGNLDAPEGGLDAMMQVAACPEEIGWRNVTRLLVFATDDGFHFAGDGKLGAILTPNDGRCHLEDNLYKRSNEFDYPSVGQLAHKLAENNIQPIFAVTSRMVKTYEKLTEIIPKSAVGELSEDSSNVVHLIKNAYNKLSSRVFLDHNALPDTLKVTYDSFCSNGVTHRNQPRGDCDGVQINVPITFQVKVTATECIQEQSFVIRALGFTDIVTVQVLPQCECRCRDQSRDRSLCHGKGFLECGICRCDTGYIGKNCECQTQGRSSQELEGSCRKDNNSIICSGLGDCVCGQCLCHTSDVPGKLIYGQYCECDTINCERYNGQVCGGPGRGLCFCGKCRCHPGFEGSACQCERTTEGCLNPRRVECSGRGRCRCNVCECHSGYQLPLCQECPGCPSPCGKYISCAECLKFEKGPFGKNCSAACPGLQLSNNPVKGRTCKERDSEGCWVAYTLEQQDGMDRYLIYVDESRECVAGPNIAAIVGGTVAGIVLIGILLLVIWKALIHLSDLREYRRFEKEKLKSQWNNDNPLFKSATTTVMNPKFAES
UniProt Q05397: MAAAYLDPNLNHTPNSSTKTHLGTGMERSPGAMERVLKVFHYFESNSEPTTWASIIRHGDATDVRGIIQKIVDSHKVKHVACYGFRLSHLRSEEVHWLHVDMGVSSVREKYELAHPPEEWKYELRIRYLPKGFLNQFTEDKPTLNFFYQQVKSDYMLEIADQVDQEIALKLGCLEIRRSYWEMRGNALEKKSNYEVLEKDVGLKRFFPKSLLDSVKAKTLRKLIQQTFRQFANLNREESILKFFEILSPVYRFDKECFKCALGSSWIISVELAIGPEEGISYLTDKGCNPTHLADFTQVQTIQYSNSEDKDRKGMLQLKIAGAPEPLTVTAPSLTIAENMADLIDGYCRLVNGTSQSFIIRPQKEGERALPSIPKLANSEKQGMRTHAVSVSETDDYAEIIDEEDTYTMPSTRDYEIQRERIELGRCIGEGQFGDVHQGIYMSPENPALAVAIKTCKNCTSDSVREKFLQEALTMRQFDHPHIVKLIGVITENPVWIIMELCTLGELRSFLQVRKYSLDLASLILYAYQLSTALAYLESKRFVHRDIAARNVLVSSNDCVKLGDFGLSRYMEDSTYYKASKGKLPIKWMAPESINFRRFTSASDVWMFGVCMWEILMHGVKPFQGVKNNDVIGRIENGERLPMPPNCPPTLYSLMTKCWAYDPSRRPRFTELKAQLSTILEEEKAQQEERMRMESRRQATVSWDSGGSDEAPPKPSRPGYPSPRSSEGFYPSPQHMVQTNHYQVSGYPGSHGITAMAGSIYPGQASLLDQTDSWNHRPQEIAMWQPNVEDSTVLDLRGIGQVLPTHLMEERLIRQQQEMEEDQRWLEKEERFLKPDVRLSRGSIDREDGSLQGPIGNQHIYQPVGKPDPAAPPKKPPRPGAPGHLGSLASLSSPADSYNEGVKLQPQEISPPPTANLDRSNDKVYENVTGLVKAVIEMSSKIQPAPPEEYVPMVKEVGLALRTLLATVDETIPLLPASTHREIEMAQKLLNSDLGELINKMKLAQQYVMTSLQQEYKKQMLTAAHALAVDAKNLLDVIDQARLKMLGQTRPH
UniProt P62993: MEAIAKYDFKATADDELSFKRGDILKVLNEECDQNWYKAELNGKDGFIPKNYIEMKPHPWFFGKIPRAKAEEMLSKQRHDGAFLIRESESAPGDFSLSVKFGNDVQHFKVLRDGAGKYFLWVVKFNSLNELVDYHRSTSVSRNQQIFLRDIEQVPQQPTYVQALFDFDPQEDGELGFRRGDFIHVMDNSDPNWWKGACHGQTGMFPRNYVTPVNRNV
UniProt Q14289: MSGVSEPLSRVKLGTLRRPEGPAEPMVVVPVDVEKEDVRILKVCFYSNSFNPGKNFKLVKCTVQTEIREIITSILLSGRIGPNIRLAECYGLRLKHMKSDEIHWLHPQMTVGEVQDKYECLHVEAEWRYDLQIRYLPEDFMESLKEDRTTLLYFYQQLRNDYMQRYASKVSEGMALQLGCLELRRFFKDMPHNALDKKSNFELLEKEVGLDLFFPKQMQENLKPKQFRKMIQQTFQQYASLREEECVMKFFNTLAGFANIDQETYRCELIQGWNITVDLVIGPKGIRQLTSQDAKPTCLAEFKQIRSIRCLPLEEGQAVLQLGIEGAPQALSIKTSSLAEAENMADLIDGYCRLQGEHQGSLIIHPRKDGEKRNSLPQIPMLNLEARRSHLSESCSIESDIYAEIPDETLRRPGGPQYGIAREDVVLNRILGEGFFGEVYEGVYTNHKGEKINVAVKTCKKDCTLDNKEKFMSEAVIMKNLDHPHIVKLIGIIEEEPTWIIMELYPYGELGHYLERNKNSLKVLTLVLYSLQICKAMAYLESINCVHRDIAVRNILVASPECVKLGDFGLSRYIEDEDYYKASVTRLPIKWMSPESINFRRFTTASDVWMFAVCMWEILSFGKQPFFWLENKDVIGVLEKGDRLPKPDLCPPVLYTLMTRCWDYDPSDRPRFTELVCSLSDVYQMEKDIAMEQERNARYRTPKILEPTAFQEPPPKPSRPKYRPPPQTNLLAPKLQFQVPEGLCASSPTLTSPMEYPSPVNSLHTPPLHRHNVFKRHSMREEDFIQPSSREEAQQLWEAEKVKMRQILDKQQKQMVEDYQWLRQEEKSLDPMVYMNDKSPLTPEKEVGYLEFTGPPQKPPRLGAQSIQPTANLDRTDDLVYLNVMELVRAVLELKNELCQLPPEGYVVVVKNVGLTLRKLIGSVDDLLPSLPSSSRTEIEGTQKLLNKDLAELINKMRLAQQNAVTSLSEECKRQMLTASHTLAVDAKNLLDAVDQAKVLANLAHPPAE

How the values were obtained:
[1] = target: T1, Lymphocyte function-associated antigen 1 (LFA-1), endogenous in Jurkat T cells (human (endogenous in Jurkat)) (UniProt P20701+P05107); assay: condition: only resting cells (rabbit control anti-mouse, no LFA-1 cross-linking); co-IP; resting Jurkat T cells (rabbit control anti-mouse, no LFA-1 cross-linking); anti-LFA-1 precipitation, blotting with anti-FAK1
[2] = target: T1, Lymphocyte function-associated antigen 1 (LFA-1), endogenous in Jurkat T cells (human (endogenous in Jurkat)); assay: co-IP; detergent lysates of Jurkat T cells ligated with anti-CD3 and/or anti-LFA-1 (5-10 min; some lysates first serially depleted with anti-SKAP1, anti-SLP-76 or anti-PLCγ1; with or without the inhibitor PF573228); precipitation with anti-SKAP1, anti-SLP-76, anti-PLCγ1 or anti-LFA-1, blotting
GST-SKAP1 SH3 domain [3] = target: T2, GST-SKAP1 SH3 domain (UniProt Q86WV1); assay: pull-down; GST fusion proteins from E. coli incubated 3 h with detergent lysates of transfected 293T cells; SDS-PAGE and western blotting; only the target purified
T2 sequence: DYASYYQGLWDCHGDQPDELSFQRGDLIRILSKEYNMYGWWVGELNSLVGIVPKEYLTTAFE

GST-SKAP1 wild-type [4] = target: T3, GST-SKAP1 wild-type (UniProt Q86WV1); assay: as above
T3 sequence: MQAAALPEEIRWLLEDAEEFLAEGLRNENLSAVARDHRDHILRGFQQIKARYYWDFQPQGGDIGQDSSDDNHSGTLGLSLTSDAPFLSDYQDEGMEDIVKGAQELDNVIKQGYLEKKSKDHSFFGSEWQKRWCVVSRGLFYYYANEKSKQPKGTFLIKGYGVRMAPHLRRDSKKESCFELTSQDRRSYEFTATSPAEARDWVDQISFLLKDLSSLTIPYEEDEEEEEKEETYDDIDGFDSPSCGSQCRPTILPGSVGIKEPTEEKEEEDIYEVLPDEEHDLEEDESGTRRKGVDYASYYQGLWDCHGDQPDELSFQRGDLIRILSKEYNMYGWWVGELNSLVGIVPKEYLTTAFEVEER

Flag-tagged SKAP1 = target: T4, Flag-tagged SKAP1 (UniProt Q86WV1); assay: co-IP; 293T cells co-transfected with Flag-SKAP1 and the partner; precipitation with anti-Flag (legend; anti-SKAP1 in the text), blotting with anti-GFP or anti-Flag
T4 sequence: T3 sequence

GST-SKAP1 SH3 domain [5] = target: T2, GST-SKAP1 SH3 domain; assay: pull-down; GST fusion proteins from E. coli incubated with lysates of Jurkat cells ligated with anti-LFA-1 for 5 min; blotting with anti-PLCγ1, anti-LAT, anti-GRB-2, anti-ADAP, anti-SLP-76 and anti-GST; only the target purified
GST-SKAP1 wild-type [6] = target: T3, GST-SKAP1 wild-type; assay: as above

- binding [1]: no binding
- binding [2]: binds
Substance: FAK1 (Focal Adhesion Kinase 1), endogenous in Jurkat T cells (from UniProt Q05397 1-1052) (enzyme)

- binding (GST-SKAP1 SH3 domain [3]): no binding
- binding (GST-SKAP1 wild-type [4]): binds
- binding (Flag-tagged SKAP1): binds
Substance: GFP-GRB2 (from UniProt P62993 1-217)

- binding (GST-SKAP1 SH3 domain [5]): no binding
- binding (GST-SKAP1 wild-type [6]): binds
Substance: GRB2 (growth-factor-receptor-bound protein 2), endogenous in human cells (from UniProt P62993 1-217)

- binding [2]: binds
Substance: PYK2 (proline-rich tyrosine kinase-2), endogenous in Jurkat T cells (from UniProt Q14289 1-1009) (enzyme)
